# Library screen at single concentrations

Protein sequences, listed by entry. Tags and fused reporters are not part of them.
UniProt P9WFT3, whole entry: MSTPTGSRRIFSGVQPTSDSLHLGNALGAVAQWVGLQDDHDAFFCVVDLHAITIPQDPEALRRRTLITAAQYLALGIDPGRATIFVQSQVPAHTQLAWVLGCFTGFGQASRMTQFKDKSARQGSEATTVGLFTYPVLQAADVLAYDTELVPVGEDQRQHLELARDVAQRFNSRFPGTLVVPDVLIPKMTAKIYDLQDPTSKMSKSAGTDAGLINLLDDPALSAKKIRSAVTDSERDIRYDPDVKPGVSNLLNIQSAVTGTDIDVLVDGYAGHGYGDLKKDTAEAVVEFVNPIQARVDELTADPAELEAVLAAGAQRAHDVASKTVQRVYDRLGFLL
UniProt P9WPC5, whole entry: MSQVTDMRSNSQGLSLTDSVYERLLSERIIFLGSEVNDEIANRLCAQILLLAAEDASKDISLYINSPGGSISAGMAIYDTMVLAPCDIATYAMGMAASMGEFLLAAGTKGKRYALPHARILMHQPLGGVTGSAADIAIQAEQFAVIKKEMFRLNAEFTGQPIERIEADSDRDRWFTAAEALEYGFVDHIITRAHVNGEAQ
UniProt P9WPC3, whole entry partner: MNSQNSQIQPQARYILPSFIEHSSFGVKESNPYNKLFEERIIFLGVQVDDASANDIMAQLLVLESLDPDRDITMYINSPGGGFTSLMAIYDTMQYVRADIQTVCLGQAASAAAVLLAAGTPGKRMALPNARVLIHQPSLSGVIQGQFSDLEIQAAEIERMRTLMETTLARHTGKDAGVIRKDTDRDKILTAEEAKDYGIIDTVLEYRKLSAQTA
UniProt P9WNZ1, whole entry: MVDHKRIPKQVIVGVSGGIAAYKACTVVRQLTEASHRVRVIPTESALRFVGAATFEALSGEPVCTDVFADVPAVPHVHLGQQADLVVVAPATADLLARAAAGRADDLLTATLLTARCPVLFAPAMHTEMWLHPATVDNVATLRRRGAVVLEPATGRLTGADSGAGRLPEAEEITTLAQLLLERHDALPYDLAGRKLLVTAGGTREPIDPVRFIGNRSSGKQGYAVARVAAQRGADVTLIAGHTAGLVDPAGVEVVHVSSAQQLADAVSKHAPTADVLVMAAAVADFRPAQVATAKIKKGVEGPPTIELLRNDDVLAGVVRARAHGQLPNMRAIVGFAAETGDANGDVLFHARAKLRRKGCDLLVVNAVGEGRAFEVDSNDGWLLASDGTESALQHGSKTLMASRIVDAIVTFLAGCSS
UniProt I6X8D2, whole entry: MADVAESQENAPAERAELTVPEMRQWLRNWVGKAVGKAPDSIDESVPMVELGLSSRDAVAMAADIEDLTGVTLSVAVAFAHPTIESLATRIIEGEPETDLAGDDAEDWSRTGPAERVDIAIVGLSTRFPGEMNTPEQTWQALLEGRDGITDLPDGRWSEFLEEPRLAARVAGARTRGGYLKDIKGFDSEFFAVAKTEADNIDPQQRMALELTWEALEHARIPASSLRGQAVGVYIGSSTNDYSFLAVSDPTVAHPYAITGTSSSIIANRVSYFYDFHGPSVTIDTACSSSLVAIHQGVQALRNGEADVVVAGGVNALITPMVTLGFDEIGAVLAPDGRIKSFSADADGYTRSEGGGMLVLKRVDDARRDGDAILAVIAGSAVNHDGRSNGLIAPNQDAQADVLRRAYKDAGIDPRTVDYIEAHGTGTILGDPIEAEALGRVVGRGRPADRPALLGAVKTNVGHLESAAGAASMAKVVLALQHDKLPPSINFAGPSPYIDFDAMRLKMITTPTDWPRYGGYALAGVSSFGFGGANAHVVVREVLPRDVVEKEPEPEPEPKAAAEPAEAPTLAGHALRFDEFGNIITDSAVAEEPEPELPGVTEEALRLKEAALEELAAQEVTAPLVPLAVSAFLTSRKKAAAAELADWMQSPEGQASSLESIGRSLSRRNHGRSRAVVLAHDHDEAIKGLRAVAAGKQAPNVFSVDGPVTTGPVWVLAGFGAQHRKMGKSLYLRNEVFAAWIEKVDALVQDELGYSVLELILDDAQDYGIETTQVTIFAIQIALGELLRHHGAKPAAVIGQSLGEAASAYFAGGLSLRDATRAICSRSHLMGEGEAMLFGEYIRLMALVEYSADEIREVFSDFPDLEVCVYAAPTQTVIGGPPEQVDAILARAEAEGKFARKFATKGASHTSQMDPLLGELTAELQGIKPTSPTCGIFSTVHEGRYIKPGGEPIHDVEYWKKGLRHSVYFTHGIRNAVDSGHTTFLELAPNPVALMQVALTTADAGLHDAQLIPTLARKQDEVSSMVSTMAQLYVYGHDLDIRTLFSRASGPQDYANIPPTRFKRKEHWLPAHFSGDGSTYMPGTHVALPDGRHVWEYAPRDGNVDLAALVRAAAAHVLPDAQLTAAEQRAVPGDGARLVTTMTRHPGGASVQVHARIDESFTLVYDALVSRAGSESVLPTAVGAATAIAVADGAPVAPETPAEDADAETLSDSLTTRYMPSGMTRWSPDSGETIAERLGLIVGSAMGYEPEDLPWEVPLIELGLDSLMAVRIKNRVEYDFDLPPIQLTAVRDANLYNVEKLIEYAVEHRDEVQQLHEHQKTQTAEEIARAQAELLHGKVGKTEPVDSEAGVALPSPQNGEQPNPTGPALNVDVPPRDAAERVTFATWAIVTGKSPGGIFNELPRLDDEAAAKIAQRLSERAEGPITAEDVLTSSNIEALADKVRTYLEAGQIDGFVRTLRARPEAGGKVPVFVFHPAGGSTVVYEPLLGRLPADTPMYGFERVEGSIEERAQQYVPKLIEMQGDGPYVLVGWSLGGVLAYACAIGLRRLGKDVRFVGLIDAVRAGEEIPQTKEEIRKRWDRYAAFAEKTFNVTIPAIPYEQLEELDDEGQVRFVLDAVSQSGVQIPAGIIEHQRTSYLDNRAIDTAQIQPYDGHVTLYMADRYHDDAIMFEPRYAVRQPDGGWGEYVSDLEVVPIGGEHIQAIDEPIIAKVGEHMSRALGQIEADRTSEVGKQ

The values are deposited in ChEMBL (CHEMBL3988442, “University of Dundee, Small-Polar-MMV Screening Library” (2021)).

Values are the deposited “Percent Effect”, in %.
How 0% and 100% were set is not recorded. Most values in the screen are low, and negative values occur.
Compounds were drawn at random from those tested, without regard to their results.

A: 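Tryptophan-tRNA ligase, Mycobacterium tuberculosis (UniProt P9WFT3). Enzyme assay of tryptophanyl-tRNA synthetase; the read-out is not stated. Compounds at 10 µM. Direction is not recorded; retested compounds ran higher, which suggests that high means inhibition. Of about 65,000 compounds tested this way, about 64 (0.098%) reached 50% or more in at least one test.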
B: 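Assay of Toxoplasma gondii numbers, read through their beta-galactosidase reporter with a colour substrate. Tested at 10 µM. Higher reads as fewer parasites (inferred from which compounds were picked for retests). Of about 67,000 compounds tested this way, about 260 (0.38%) reached 50% or more in at least one test.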
C: 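Protease assay of ClpP1P2, read by the AMC dye that it sets free. Target: ClpP1P2, Mycobacterium tuberculosis (UniProt P9WPC5 and UniProt P9WPC3). Concentration: 50 µM. Higher reads as stronger inhibition, judged from the few compounds that gave an IC50. Most other retested compounds had strongly negative values. Of about 69,000 compounds tested this way, about 10 (0.015%) reached 50% or more in at least one test.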
D: 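Enzyme assay of CoaBC with a phosphate dye (Biomol Green) read at 650 nm. Target: Coenzyme A biosynthesis protein CoaBC, Mycobacterium tuberculosis (UniProt P9WNZ1). Concentration: 30 µM. Higher reads as stronger inhibition, judged from the few compounds that gave an IC50. Most strong results did not repeat in a second test. Size under these conditions: about 67,000 compounds, about 40 of them at 50% or above in at least one test.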
E: 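Enzyme assay of the thioesterase domain of polyketide synthase 13; the read-out is not stated. Target: Polyketide synthase Pks13, Mycobacterium tuberculosis (UniProt I6X8D2). Concentration: 30 µM. Higher reads as stronger inhibition (inferred from which compounds were picked for retests). Size under these conditions: about 67,000 compounds, about 300 of them at 50% or above in at least one test.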

For [H][C@@]12CN(C(=O)c3cccn3C)C[C@]1([H])OCCN2Cc1csc(C)n1 the result was B: -6.648%.
For CNS(=O)(=O)CC1CCCN1C(=O)c1ccc2cc[nH]c2c1 (centres undefined) the result was A: 0.3396%; B: -0.649%; C: -0.1685%; D: 0.2439%; E: -30.63%.
For [H][C@@]12CCN(C[C@@H]1CN1CCCC1)[C@@H](CNS(=O)(=O)c1ccc(Cl)cc1)C2 the result was B: 3.835%.
For Cc1ncc2c(n1)CN(Cc1nc(-c3cccs3)no1)CC2 the result was A: 14.71%; B: 11.08%; C: -13.37%; D: 14.47%; E: -1.629%.
For c1cncc(O[C@H]2COCCN(C3CCC3)C2)c1 the result was A: -0.3794%; B: 1.728%; C: -1.945%; D: 5.96%; E: -29.41%.
For CC(=O)N1CC2(CCN(C(=O)c3ccoc3)C2)C1 the result was A: -2.604%; B: 15.77%; C: -3.164%; D: 4.56%; E: -35.28%.
For O=C(O)C(F)(F)F.[H][C@@]12COC[C@]1(CN(C)C)CN(C(=O)Cc1ccccc1C)C2 the result was B: -1.605%.
For O=C(NC1CC1)c1nc2c(s1)CCCN2c1ccccc1 the result was A: -7.006%; B: 6.028%; C: -12.93%; D: -0.6536%; E: -36.22%.
For O=C(O)c1ccccc1-n1cc(CN2CCC(c3cc[nH]n3)C2)cn1 (centres undefined) the result was A: -5.729%; B: 0.8397%; C: 5.38%; D: -0.9569%.
For CC(C)(C)NC(=O)N1CCC(Oc2ccc(C(F)(F)F)cn2)CC1 the result was A: -0.5089%; B: -6.289%; C: -3.876%; D: 0.9223%; E: -17.95%.
For CS(=O)(=O)N1CC[C@H]2OCC[C@@]2(C(=O)NCc2ccccn2)C1 the result was C: 2.111%; D: 1.728%; E: -5.049%.
For COc1ccc2cc(NC(=O)CCNc3nc(C)cc(C)n3)cnc2c1 the result was A: -1.471%; B: 0.1369%; C: -7.587%; D: 6.566%; E: -35.57%.
For Cc1nc(CN(C)S(=O)(=O)c2ccccc2Br)no1 the result was A: 0.7988%; B: -3.611%; C: -5.656%; D: -2.676%; E: -4.055%.
For c1ccc(CN2CCC(CNc3ncnc4c3CCNCC4)CC2)cc1 the result was A: 1.762%; B: 20.16%; C: -8.762%; D: -11.74%; E: -5.075%.
For N#Cc1cccc(C(=O)N2CCCC(O)(CO)CC2)c1 (centres undefined) the result was A: -5.153%; B: 6.011%; C: -6.772%; D: 2.381%; E: -1.109%.
For CCn1ccc(NC(=O)CN2C(=O)C(C)(C)c3ccccc32)n1 the result was A: -0.4531%; B: -9.612%; C: -3.1%; D: 0.241%; E: -8.356%.
For O=C(O)C(F)(F)F.O=C(O)C(F)(F)F.[H][C@@]12CN(Cc3scnc3C)C[C@H](C(=O)NCCOC)[C@]1([H])CCO2 the result was B: 1.409%.